Results published in publication PMC4269414, “Stubborn Contaminants: Influence of Detergents on the Purity of the Multidrug ABC Transporter BmrA” (PLoS ONE, 2014).
No constants are given. Whether binding was seen depends on the method and setting. Sequences can lack the tags named with a protein.

Target: T1, Acriflavine resistance protein B (AcrB) (E. coli (endogenous in the expression strain)) (UniProt P31224)
T1 sequence: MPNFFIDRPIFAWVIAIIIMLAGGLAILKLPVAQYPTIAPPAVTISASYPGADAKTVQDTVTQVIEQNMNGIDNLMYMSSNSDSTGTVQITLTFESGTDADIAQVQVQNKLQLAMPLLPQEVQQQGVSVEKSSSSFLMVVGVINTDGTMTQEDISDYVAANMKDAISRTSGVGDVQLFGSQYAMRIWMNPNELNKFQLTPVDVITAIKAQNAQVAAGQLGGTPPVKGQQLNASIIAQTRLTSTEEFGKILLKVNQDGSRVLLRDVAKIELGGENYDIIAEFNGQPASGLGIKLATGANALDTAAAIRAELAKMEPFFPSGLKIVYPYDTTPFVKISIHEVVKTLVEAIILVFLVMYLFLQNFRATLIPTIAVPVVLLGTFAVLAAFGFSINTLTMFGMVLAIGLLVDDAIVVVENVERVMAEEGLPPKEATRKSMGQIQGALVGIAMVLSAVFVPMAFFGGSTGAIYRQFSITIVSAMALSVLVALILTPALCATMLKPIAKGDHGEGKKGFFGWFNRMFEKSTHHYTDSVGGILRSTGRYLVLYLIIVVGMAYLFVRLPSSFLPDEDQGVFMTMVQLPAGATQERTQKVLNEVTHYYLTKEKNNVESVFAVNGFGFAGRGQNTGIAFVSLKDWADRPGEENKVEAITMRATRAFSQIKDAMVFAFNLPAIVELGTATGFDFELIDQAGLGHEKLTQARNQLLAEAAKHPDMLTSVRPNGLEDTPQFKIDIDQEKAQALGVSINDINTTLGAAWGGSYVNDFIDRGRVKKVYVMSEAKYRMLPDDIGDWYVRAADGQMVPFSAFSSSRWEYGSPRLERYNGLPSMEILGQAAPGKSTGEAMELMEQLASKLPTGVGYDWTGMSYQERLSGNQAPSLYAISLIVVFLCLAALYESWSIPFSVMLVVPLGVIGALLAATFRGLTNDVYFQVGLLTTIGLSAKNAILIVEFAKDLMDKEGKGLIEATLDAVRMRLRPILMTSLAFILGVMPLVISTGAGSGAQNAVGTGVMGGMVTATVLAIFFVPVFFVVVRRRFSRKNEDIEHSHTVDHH
Assay: pull-down; second Ni2+ High Trap chelating column in DDM after partial trypsin cleavage of the N-terminal His6 tag; flow-through against the peak eluted with 250 mM imidazole, fractions on SDS-PAGE; both purified

binding: no binding
B1: E504Q BmrA mutant, untagged, cleaved by trypsin (starts at Leu12) (domain or fragment, Bacillus subtilis, UniProt O06967 12-589, looked up)
chain: LKPFFALVRRTNPSYGKLAFALALSVVTTLVSLLIPLLTKQLVDGFSMSNLSGTQIGLIALVFFVQAGLSAYATYALNYNGQKIISGLRELLWKKLIKLPVSYFDTNASGETVSRVTNDTMVVKELITTHISGFITGIISVIGSLTILFIMNWKLTLLVLVVVPLAALILVPIGRKMFSISRETQDETARFTGLLNQILPEIRLVKASNAEDVEYGRGKMGISSLFKLGVREAKVQSLVGPLISLVLMAALVAVIGYGGMQVSSGELTAGALVAFILYLFQIIMPMGQITTFFTQLQKSIGATERMIEILAEEEEDTVTGKQIENAHLPIQLDRVSFGYKPDQLILKEVSAVIEAGKVTAIVGPSGGGKTTLFKLLERFYSPTAGTIRLGDEPVDTYSLESWREHIGYVSQESPLMSGTIRENICYGLERDVTDAEIEKAAEMAYALNFIKELPNQFDTEVGERGIMLSGGQRQRIAIARALLRNPSILMLDQATSSLDSQSEKSVQQALEVLMEGRTTIVIAHRLSTVVDADQLLFVEKGEITGRGTHHELMASHGLYRDFAEQQLKMNADLENKAG
notes: BmrA, Bacillus subtilis, E504Q mutant, cut by trypsin between Lys11 and Leu12; The His6 tag is lost together with residues 1-11; also called untagged BmrA; untagged, cleaved, monomer
